Paper PMC3646808, “Aggregate-Reactivation Activity of the Molecular Chaperone ClpB from Ehrlichia chaffeensis” (PLoS ONE, 2013)
No constants are given. Whether binding was seen depends on the method and setting. Some binding calls cover weakened binding; strength is not graded here. Sequences can lack the tags named with a protein.

Amino acid sequences for entries named in this document (tags omitted).
UniProt P63284: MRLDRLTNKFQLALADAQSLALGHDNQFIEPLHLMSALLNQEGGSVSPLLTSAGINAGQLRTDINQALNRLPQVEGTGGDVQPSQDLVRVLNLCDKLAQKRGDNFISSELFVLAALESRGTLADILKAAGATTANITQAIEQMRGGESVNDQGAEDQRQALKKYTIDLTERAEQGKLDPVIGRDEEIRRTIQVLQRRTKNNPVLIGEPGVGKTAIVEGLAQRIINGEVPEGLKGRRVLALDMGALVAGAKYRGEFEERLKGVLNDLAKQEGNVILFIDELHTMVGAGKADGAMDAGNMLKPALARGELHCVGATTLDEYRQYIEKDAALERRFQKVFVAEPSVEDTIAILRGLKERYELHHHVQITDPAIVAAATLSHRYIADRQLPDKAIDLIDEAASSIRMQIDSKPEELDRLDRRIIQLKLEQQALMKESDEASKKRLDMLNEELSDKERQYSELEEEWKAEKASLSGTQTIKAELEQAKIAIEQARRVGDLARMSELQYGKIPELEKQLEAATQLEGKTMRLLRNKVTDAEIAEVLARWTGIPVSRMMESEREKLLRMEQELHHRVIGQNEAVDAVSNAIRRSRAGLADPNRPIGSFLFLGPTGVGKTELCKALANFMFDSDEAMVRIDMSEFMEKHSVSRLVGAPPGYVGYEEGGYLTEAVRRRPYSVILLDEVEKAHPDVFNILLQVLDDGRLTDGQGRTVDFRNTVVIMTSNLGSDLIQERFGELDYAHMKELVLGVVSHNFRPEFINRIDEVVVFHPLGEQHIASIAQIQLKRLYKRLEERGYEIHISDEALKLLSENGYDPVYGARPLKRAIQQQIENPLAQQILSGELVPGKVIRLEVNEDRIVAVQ

Experiments:
[1] = biological target: T1, aggregated glucose-6-phosphate dehydrogenase from Leuconostoc mesenteroides (Leuconostoc mesenteroides) (UniProt P11411); experiment: retention with aggregates on a 0.1-µm filter, SDS-PAGE; aggregated G6PDH (16 µM diluted 10-fold) with 1.5 µM ClpB and 6 mM ATPγS in refolding buffer 1, 30°C, 20 min; filter-retained fraction on SDS-PAGE with Coomassie stain; both purified
T1 sequence: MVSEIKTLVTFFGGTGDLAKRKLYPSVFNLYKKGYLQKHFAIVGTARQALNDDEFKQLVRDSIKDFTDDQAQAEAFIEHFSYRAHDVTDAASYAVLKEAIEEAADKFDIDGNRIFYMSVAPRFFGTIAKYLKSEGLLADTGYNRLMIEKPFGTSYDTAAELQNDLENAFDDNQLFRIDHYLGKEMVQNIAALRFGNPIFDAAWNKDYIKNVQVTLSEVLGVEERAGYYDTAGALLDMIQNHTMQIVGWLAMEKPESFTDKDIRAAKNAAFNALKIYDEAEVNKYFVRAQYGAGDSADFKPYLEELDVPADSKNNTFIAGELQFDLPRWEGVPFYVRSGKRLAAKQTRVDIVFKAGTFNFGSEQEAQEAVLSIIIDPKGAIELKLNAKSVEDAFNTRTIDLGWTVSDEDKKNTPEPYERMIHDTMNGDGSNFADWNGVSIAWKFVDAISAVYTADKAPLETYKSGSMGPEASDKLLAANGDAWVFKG

[2] = biological target: T1, aggregated glucose-6-phosphate dehydrogenase from Leuconostoc mesenteroides (Leuconostoc mesenteroides); experiment: retention with aggregates on a 0.1-µm filter, SDS-PAGE; aggregated G6PDH (16 µM diluted 10-fold) with 1.5 µM ClpB and 6 mM AMPPNP in refolding buffer 1, 30°C, 20 min; filter-retained fraction on SDS-PAGE with Coomassie stain; both purified

- binding [1]: binds
- binding [2]: no binding (condition: with 6 mM AMPPNP)
Substance: ClpB from Escherichia coli (from UniProt P63284 1-857)
